Reference: PubChem BioAssay AID1347423 (Functional Genomics Laboratory (NCATS/FGL), 2020)
Hit rate of the full screen: of about 52,000 sequences, about 210 (0.4%) were called active.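 How the source made its calls: active means gene whose silencing raises cell survival under the drug, median off-target-corrected z-score across its silencing RNAs 2 or more; inactive means the rest.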 The list shows a part of the results.

experiment: Resistance to Poly (ADP-Ribose) Polymerase inhibitor: Gene Identification via Genome-wide siRNA Screen; settings: mouse BRCA2 R2336H ES cells, olaparib, CellTiter-Glo viability; hits give high values
How it was run: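 Mouse BRCA2 R2336H ES cells were reverse-transfected with siRNA (20 nM final), treated at 48 h with 500 nM olaparib, and read by CellTiter-Glo after 72 h. Scores: MAD-based z per siRNA, median per gene, seed off-target correction.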

Row | Sequence | z-score
1 | GCAGUAACCUUCUAACAAATT against Foxn2 | inactive: 0.314
2 | GCAGUACCACUCUCUUUUUTT against 2610304F09Rik | inactive: 0.155
3 | GGAUCAGGAUUUAAUGAAUTT against 3110050N22Rik | inactive: 0.285
4 | GGCUUAAAUGCGUUCUACATT against Slc25a3 | inactive: -1.28
5 | GGGAUCCUCUUGACAUUCCTT against AU040950 | inactive: -0.938
6 | GAAGGCCAAUGAUCGGGAGTT against Neurog3 | inactive: -0.539
7 | GGAUAUUCGAGCAACCUUUTT against Pcdhb18 | inactive: 0.259
8 | GCCCUACACCUGUAUUACATT against Tas1r3 | inactive: 0.998
9 | GGCAAAGUUGUCCUAAGGUTT against Rab27b | inactive: 0.928
10 | GGCUGCUUCAGAUUUUCACTT against Naalad2 | inactive: -0.162
11 | GCUGAAAGAUUUACUGCCCTT against Bhlhb3 | inactive: 0.869
12 | GCCAGUUACGCGGACAUUUTT against Rasgrf2 | inactive: -1.12
13 | GCACAGGUGAGCUCUUUGATT against Nudt10 | inactive: -0.345
14 | GGAUAAGGUCCAGUACUUGTT against Mapk13 | inactive: 0.0642
15 | CCAUCAGGUUUAAGUCGUATT against 2210415M20Rik | inactive: -0.646
16 | GCUAAUGGCAGAGUAACCUTT against Pcdhga1 | inactive: 0.692
17 | CCACAUUGUAGGCAACCAATT against Hpd | inactive: 0.682
18 | GGCGGUGAUGGAAUGAACATT against Plod2 | inactive: -0.634
19 | GCCAAACUUACGUUUUUGATT against Als2cr3 | inactive: 0.163
20 | GGUAUAUAACAACCUGUAUTT against 1700031F13Rik | inactive: 1.2
21 | GCACCAAUAUUAGGCUGACTT against Ccrn4l | inactive: 1.43
22 | GGUGCCAAUGACAUAUUGGTT against H2-M10.5 | inactive: 0.255

Exported as a markdown table: entries from further up.

| Row | Sequence | z-score |
| --- | --- | --- |
| 3 | GGAUCAGGAUUUAAUGAAUTT against 3110050N22Rik | inactive: 0.285 |
| 4 | GGCUUAAAUGCGUUCUACATT against Slc25a3 | inactive: -1.28 |
| 5 | GGGAUCCUCUUGACAUUCCTT against AU040950 | inactive: -0.938 |
| 6 | GAAGGCCAAUGAUCGGGAGTT against Neurog3 | inactive: -0.539 |
| 7 | GGAUAUUCGAGCAACCUUUTT against Pcdhb18 | inactive: 0.259 |
| 8 | GCCCUACACCUGUAUUACATT against Tas1r3 | inactive: 0.998 |
| 9 | GGCAAAGUUGUCCUAAGGUTT against Rab27b | inactive: 0.928 |
| 10 | GGCUGCUUCAGAUUUUCACTT against Naalad2 | inactive: -0.162 |
| 11 | GCUGAAAGAUUUACUGCCCTT against Bhlhb3 | inactive: 0.869 |
| 12 | GCCAGUUACGCGGACAUUUTT against Rasgrf2 | inactive: -1.12 |
| 13 | GCACAGGUGAGCUCUUUGATT against Nudt10 | inactive: -0.345 |
| 14 | GGAUAAGGUCCAGUACUUGTT against Mapk13 | inactive: 0.0642 |
| 15 | CCAUCAGGUUUAAGUCGUATT against 2210415M20Rik | inactive: -0.646 |
| 16 | GCUAAUGGCAGAGUAACCUTT against Pcdhga1 | inactive: 0.692 |
| 17 | CCACAUUGUAGGCAACCAATT against Hpd | inactive: 0.682 |
| 18 | GGCGGUGAUGGAAUGAACATT against Plod2 | inactive: -0.634 |
| 19 | GCCAAACUUACGUUUUUGATT against Als2cr3 | inactive: 0.163 |
| 20 | GGUAUAUAACAACCUGUAUTT against 1700031F13Rik | inactive: 1.2 |
| 21 | GCACCAAUAUUAGGCUGACTT against Ccrn4l | inactive: 1.43 |
| 22 | GGUGCCAAUGACAUAUUGGTT against H2-M10.5 | inactive: 0.255 |

More results.

Row | Sequence | z-score
23 | GAUGUUCUUUGUCCACAUGTT against Olfr666 | inactive: -0.163
24 | GGAUACAGCCUGCCAGUUCTT against BC035954 | inactive: -0.187
25 | GGCCUUGCUUCGAUGUAGUTT against Gemin7 | inactive: -0.183
26 | GAAGGAGAAGGAAGAGUUGTT against Cadps | inactive: 0.443
27 | GCCACAACUGGCACGUUACTT against Mbd3 | inactive: 0.995
28 | GGAUAUUCUUCUUAAGCAGTT against 9430057O19Rik | inactive: -0.988
29 | GGGUCGAAAUUGGGAUCCATT against Vps45 | inactive: -0.588
30 | GGACUCUAAGUUGUGAAUUTT against B430203M17Rik | inactive: -1
31 | GCACCAUGUCAGGAAGUGUTT against B230315M08Rik | active: 3.45
32 | GGAUAAAGAAGGACUCAAATT against Tpbpb | inactive: -0.0307
33 | GGUGGAAGGCUUUUUCUACTT against Olfr1104 | inactive: 0.659
34 | GCAAUGUACUGGUAUAAUUTT against B230315F11Rik | inactive: -0.587
35 | CCCAUGUUUAUGUUGCUGATT against Olfr467 | inactive: 0.197
36 | GCUAGUUGGAGCUAGAUUATT against E130320D18 | inactive: 0.013
37 | GCCAACCAUCUUUUGACAGTT against 6530418L21Rik | inactive: -0.663
38 | GGAGUGGUGUGUCAUUGAUTT against Impact | inactive: -0.052
39 | GCUUCUUAUGGUCACUUAATT against Asb12 | inactive: -2.48
40 | GGAAGAGGUCUUUAAUACATT against Kif4 | inactive: 0.0924
41 | CCGUGGUUUCUACAGUGUUTT against Ppp4c | inactive: -0.563
42 | GGUAGAAGAUUCAAAAUCUTT against Canx | inactive: 0.549
43 | GAUUCUCAUCUCAAUAAGCTT against Serpinb9g | inactive: -0.197
44 | GGCUACAAGAGCUUGCUCUTT against Dna2l | inactive: -1.28

Row | Sequence | z-score
45 | GGAAGACAUCUGAAACGAUTT against 2510005D08Rik | inactive: 0.753
46 | GGUGUCAGGGCAGUGUAAATT against Bach1 | inactive: 0.0246
47 | CGACUCUCCAUCCUUAACATT against Dlx4 | inactive: -2.44
48 | GCUCAGCUUGCUUCACUCATT against 1810049O03Rik | inactive: -2.64
49 | GCUGUGAUCUGAGGAGACUTT against Igf1 | inactive: 0.5
50 | GGUGUGAUAAUGAAACCAATT against A630029G22Rik | inactive: -0.73
51 | CCCUCAAGUCGCACCUUUUTT against C130007D14 | inactive: -1.45
52 | GGUCAUUAUUGUCAUCUACTT against Tmem9 | inactive: -0.334
53 | GGUUCACAUCCUCCUCAGATT against Twist2 | inactive: 0.354
54 | GCCAAUGAUGUAGCAAAUUTT against Slc20a1 | active: 2.1
55 | GGACUGAAAGACUUGCUCGTT against Hprt1 | inactive: -0.69
56 | GGUCAUUGGCACCAACAAGTT against Tgfbi | inactive: 1.1
57 | CGUUUUCUCCUUCGAUCUUTT against Sema6c | inactive: 2.63
58 | CCUAAUUAAGGUUUCUGUUTT against C8a | inactive: -0.0444
59 | GGCGAUACCUAAAACAUCUTT against Noxa1 | inactive: 3.65
60 | CCCGGGUGUUUUUGCCUAUTT against Kcnc4 | inactive: -1.83
61 | GCCAUAAGUUAUGAUGUGGTT against A930004D23Rik | inactive: -0.376
62 | GGCCUAGAUCAAUACCAAGTT against 4930433I11Rik | inactive: 0.938
63 | GGUUCCACUCAUUGUCUCGTT against Fndc5 | inactive: 0.312
64 | GGAACACUAAAACUCAACUTT against Gpr146 | inactive: -0.575
65 | GGCUCAAGCAUUAAUUAAUTT against LOC208943 | inactive: 0.0156
66 | GGGUAUGACAACAAACUUCTT against Gabrg2 | inactive: 1.29
